Results published in publication doi:10.1101/2021.05.03.442316.
These are yes or no findings as the source states them, for the method shown. Binding seen in cells or lysates may run through a third protein. Some results given as binding are weak or reduced against the parent protein; the word gives no strength.

Amino acid sequences for entries named in this document (tags omitted). A change or cut given only in a name is not applied to a line headed by its entry. Chains listed by the source or under a name are the forms on record and can include a tag or linker.
UniProt Q64131: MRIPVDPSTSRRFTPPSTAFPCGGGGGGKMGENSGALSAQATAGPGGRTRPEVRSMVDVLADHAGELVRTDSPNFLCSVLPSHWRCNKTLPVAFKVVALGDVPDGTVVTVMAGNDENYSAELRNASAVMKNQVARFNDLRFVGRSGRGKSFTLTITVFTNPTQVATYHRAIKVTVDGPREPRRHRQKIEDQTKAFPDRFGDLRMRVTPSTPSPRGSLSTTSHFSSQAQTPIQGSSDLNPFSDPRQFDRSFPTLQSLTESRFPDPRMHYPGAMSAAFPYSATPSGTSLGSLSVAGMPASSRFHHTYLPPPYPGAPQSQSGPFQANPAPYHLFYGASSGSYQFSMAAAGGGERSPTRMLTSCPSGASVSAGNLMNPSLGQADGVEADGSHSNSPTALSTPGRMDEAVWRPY
RUNX3 (P1) (Q13761-2, form named): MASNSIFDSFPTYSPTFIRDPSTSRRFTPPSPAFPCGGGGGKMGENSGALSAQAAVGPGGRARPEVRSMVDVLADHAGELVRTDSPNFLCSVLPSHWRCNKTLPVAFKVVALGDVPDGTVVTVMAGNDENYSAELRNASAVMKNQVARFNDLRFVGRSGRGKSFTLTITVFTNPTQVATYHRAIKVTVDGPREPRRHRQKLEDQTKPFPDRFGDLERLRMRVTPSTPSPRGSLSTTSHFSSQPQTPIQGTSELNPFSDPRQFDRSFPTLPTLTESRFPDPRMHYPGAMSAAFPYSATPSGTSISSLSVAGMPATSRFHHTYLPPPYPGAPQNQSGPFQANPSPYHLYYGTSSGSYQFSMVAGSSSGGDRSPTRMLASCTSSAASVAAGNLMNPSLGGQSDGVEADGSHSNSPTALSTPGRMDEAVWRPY
UniProt P02340: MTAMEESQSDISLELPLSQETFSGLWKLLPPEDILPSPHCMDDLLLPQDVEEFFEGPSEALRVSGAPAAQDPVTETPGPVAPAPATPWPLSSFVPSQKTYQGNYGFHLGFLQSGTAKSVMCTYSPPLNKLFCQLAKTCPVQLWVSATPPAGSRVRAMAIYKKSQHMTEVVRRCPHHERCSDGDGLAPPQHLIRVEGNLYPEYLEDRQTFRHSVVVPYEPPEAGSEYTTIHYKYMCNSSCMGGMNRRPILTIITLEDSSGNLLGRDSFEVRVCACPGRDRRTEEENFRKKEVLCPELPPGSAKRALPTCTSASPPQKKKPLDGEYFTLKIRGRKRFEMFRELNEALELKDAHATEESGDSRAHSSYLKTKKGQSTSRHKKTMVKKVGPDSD

How the values were obtained:
[1] = molecular target: human wild-type p53 (human) (UniProt P04637); assay: co-IP
[2] = molecular target: Runx3 (endogenous mouse Runx3) (mouse (endogenous in mOS1-1 and ST2)) (UniProt Q64131); assay: co-IP

Substance	binding [1]	binding [2]
RUNX3 (P1) (from UniProt Q13761-2 1-429)	binds	
p53 (endogenous mouse p53) (from UniProt P02340 1-390)		binds
